Measured values taken from PubChem BioAssay AID2551 (National Center for Advancing Translational Sciences (NCATS), 2010).
Out of some 310,000 compounds screened, about 17,000 (5.5%) were called active. The shares of active, inactive and inconclusive entries below differ from those in the screen. The call rests on the fitted dose curve; in most records, active means well fitted inhibition curve with a large enough effect; inconclusive means small, poorly fitted or top-dose-only effect, or effect the other way; inactive means no such curve, though single readings can be large or run the other way. Potencies of inconclusive entries are doubtful fits and often do not repeat.

By UniProt entry, the sequences of proteins in these tests, tags left out. Where a name states a change or a piece, a line headed by the entry shows the natural chain unless it says otherwise.
UniProt P51450: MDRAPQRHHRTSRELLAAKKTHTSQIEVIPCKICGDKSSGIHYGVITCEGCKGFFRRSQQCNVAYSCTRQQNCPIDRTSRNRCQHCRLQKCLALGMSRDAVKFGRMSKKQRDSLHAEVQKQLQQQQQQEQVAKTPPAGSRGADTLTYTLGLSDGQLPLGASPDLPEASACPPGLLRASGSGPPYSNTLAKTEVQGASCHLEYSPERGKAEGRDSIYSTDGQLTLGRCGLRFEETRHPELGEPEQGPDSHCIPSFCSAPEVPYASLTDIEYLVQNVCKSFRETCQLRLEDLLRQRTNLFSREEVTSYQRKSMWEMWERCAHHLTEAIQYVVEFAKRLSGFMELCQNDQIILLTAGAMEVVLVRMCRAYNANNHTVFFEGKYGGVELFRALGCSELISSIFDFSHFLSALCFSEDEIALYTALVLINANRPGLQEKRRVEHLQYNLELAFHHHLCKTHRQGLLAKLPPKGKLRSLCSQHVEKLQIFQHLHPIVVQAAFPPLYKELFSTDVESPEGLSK

What follows are compounds tested against Nuclear receptor ROR-gamma (Mus musculus) (UniProt P51450) (assay: qHTS for inhibitors of ROR gamma transcriptional activity). Settings: Drosophila S2 Gal4-RORgamma UAS-luciferase reporter, 20 h; activity change, negative = inhibition: at 53.6 µM (top of the series).
In short: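 Drosophila Schneider cells stably carrying a metallothionein-driven Gal4 DBD–ROR gamma fusion and a UAS-Photinus luciferase reporter were exposed to compound for 1 hr, then induced with copper sulfate (700 uM final) for 20 hr at ambient temperature before luminescence reading.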
Further: nearly all actives have a fitted effect of over 60% in size.
On the % scale 0 is the no-effect control and ±100 the full control effect; potency means the concentration at half of the fitted maximal effect.

Structure (SMILES)	activity change, negative = inhibition	Potency
N=C1/C(=C\c2ccc(-c3cccc(Cl)c3)o2)C(=O)N=C2SC=C(c3ccccc3)N12	inactive: 57.9%	
COc1ccc(C(=O)Nc2nc(-c3ccccc3)c(C(C)=O)s2)c(OC)c1	inactive: -21.6%	
CC1CCC/C(=C\Nc2ccc(C(=O)O)cc2)C1=O (centres undefined)		inconclusive: 2.51 µM [inhibitor, partial curve]
CN1N=C(C(C)(C)C)CSC1=Nc1ccc(F)cc1		inconclusive: 11.2 µM [activator, single point]
CCN(CC)CCCNC(=O)c1cn(CC)c2ccc(S(=O)(=O)N(C)C3CCCCC3)cc2c1=O	inactive: 3.29%	
COc1ccc(NC(=S)NCCc2c[nH]c3ccccc23)c(OC)c1		active: 7.94 µM
COc1c(-c2coc3cc4c(cc3c2=O)CC(O)C(C)(C)O4)ccc2c1C=CC(C)(C)O2 (centres undefined)		active: 1.12 µM
CS(=O)(=O)c1ccc2nc(NC(=O)CCC(=O)c3cccs3)sc2c1		inconclusive: 14.1 µM [activator, single point]
CCCCC(=O)N(CCC)CCC	inactive: 5.28%	
CCOc1ccc(Oc2c(/C=N/NC(=O)COc3ccccc3OC)c(C)nn2-c2ccccc2)cc1		inconclusive: 35.5 µM [activator, single point]
CCNc1ncc2ncc(=O)n(Cc3cccc(OC)c3)c2n1		active: 12.6 µM
COc1cccc(C(=O)OCn2nnc3ccccc3c2=O)c1		inconclusive: 6.31 µM [inhibitor, partial curve, poor fit]
COc1cc(C(F)(F)F)ccc1C(=O)NCCc1ccco1	inactive: -0.907%	
O=[N+]([O-])c1cc(F)c(N2CCCCC2)cc1N1CCOCC1	inactive: 1.86%	
CC(=O)Cc1cc(=O)c2c(C)cc(O)c(C3OC(CO)C(O)C(O)C3O)c2o1 (centres undefined)		inconclusive: 0.199 µM [activator, single point]
C=CCn1c(SCc2ccc(C(=O)NCCO)cc2)nc2sc(C)c(C)c2c1=O		inconclusive: 15.8 µM [activator, single point]
Cc1cccc(OC(=O)n2c(=S)oc3cc(Cl)ccc32)c1		inconclusive: 31.6 µM [inhibitor, single point]
O=C(C1CCCN(c2ncnc3c2nc2n3CCCCC2)C1)N1CCN(c2ccccc2F)CC1 (centres undefined)		inconclusive: 15.8 µM [activator, single point]
O=C(c1cnn2c(C(F)(F)F)cc(-c3ccc(Br)cc3)nc12)N1CCOCC1	inactive: 2.47%	
COc1ccc(/C=C/C(=O)Nc2ccccc2Cl)cc1S(=O)(=O)N1CCOCC1		inconclusive: 35.5 µM [activator, single point]
C=CCn1c(SCC(=O)Nc2ccc(NC(=O)c3ccco3)c(OC)c2)nnc1-c1ccncc1	inactive: 6.43%	
Cc1cc(C(=O)NC(=S)Nc2cccc(NC(=O)C(C)C)c2)ccc1[N+](=O)[O-]		active: 10 µM

Ordered by SMILES length (falling): part of the list above.
Structure (SMILES)	activity change, negative = inhibition	Potency
CC(=O)Cc1cc(=O)c2c(C)cc(O)c(C3OC(CO)C(O)C(O)C3O)c2o1 (centres undefined)		inconclusive: 0.199 µM [activator, single point]
O=[N+]([O-])c1cc(F)c(N2CCCCC2)cc1N1CCOCC1	inactive: 1.86%	
COc1cccc(C(=O)OCn2nnc3ccccc3c2=O)c1		inconclusive: 6.31 µM [inhibitor, partial curve, poor fit]

(listing goes on)

Structure (SMILES)	activity change, negative = inhibition	Potency
O=C1c2ccccc2N2C(=O)c3ccccc3C2N1O (centres undefined)		inconclusive: 20 µM [inhibitor, single point]
C=CCSc1nc2c(c(C3CC=CCC3)c1C#N)CCC2 (centres undefined)		inconclusive: 17.8 µM [activator, single point]
CC1CN(C(=S)Nc2cccc(F)c2)CC(C)O1 (centres undefined)		inconclusive: 22.4 µM [inhibitor, single point]
N#Cc1cccc(Nc2c3c(nc4ccccc24)CCCC3)c1		inconclusive: 12.6 µM [activator, partial curve]
Cc1cccc(Nc2nc(CC(=O)O)cs2)c1		inconclusive: 35.5 µM [inhibitor, single point]
Cc1ccc(C(=O)N2CC(=O)Nc3ccc(C)cc3C2c2ccccc2)cc1 (centres undefined)		inconclusive: 35.5 µM [activator, single point]
CC1(C)CC(=O)C(C(C2=C(O)CC(C)(C)CC2=O)c2ccc(Cl)c([N+](=O)[O-])c2)C(=O)C1 (centres undefined)		inconclusive: 12.6 µM [activator, single point]
CN1CC(=O)N(CC(=O)Nc2cccc(S(=O)(=O)N3CCOCC3)c2)C1=O		inconclusive: 14.1 µM [activator, partial curve]
O=C(/C=C/C#Cc1cccc(NS(=O)(=O)c2ccccc2)c1)NO		inconclusive: 8.91 µM [inhibitor, partial curve, poor fit]
COc1ccc(CCN(C)C(=S)Nc2ccc(SC(F)F)cc2)cc1OC		active: 20 µM
CCN(CC)C(=O)CSc1nc(-c2ccco2)cc(C(F)(F)F)c1C#N		inconclusive: 6.31 µM [activator, partial curve, poor fit]
CCCCCn1c(=O)c(-c2nc3ccccc3[nH]2)c(O)c2ccccc21		active: 1.58 µM
Cn1c(=O)oc2cc(S(=O)(=O)N3CCN(c4ccc(F)cc4)CC3)ccc21		inconclusive: 35.5 µM [inhibitor, single point]
COc1ccc(C)cc1-n1nnnc1SCc1nc2ccccc2c(=O)[nH]1		inconclusive: 0.01 µM [activator, full curve, poor fit]
CC1CCCC(NC(=O)COC(=O)c2ccccc2NC(=O)c2ccco2)C1C (centres undefined)		inconclusive: 0.708 µM [inhibitor, single point]
Cc1cc(C)n(-c2nc3ccccc3nc2N2CCC(C)CC2)n1		inconclusive: 22.4 µM [inhibitor, single point]
O=S(=O)(c1ccc(Cl)cc1)c1nc(-c2ccco2)oc1N1CCCCC1		inconclusive: 7.94 µM [activator, partial curve]
O=C(NCc1ccco1)C12CN(Cc3ccccc3)CC1C(c1cccc([N+](=O)[O-])c1)=NO2 (centres undefined)		inconclusive: 15.8 µM [activator, single point]
N#C/C(=C\c1cn(Cc2ccc(F)cc2)c2ccccc12)C(=O)NCc1ccco1		inconclusive: 10 µM [inhibitor, single point]
CCn1c(=O)n(CC)c2cc(S(=O)(=O)NCCOc3ccccc3)c(C)cc21		inconclusive: 35.5 µM [inhibitor, single point]
O=C(N/N=C/c1ccccn1)c1cccs1		active: 7.08 µM
O=C(CSc1n[nH]c(-c2ccccc2)n1)Nc1ccc(F)cc1F		inconclusive: 31.6 µM [activator, single point]
